# According to article PMC5770787:
# Sequences of proteins named here, by UniProt entry; tags and fusion partners are left off.
# UniProt P51149: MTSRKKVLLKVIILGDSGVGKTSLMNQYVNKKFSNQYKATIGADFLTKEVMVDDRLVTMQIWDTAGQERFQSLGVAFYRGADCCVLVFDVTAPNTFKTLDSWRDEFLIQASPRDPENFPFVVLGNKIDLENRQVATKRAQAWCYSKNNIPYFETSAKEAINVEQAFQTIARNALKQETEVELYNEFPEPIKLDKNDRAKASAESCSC
# These are yes or no findings as the source states them, for the method shown. Binding seen in cells or lysates may run through a third protein. Some results given as binding are weak or reduced against the parent protein; the word gives no strength. Where a sequence is shown, tags or fusion partners need not be part of it.
# Target: T1, GFP-GDI1 (UniProt P31150)
# T1 sequence: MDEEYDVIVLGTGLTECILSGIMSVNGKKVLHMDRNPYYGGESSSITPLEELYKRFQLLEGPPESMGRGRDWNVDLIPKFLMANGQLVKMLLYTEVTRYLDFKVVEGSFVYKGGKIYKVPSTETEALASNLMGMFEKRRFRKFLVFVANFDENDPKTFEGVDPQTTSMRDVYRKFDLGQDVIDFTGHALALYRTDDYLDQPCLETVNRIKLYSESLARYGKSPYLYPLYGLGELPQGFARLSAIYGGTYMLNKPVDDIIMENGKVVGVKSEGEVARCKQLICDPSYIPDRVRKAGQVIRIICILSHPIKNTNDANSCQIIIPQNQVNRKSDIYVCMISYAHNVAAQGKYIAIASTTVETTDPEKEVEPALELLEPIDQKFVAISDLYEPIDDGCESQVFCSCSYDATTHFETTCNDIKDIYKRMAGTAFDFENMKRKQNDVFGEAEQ
# Assay: co-IP; GFP-trap of lentivirally expressed GFP bait (GFP-RAB7 from parental HeLa; GFP-GDI1 from parental HeLa and VPS35 KO cells); Tris-HCl pH 7.8, 50 mM NaCl, 0.5% Triton X-100, 1 mM MgCl2; Western blot for endogenous prey
substance,measurement,value
endogenous RAB7a (from UniProt P51149 1-207),binding,binds
